One molecule from paper PMC5007552 can be followed below.

The assay has as its target T1, SGK3 [S486E]-GST (human) (UniProt Q96BR1).
T1 sequence: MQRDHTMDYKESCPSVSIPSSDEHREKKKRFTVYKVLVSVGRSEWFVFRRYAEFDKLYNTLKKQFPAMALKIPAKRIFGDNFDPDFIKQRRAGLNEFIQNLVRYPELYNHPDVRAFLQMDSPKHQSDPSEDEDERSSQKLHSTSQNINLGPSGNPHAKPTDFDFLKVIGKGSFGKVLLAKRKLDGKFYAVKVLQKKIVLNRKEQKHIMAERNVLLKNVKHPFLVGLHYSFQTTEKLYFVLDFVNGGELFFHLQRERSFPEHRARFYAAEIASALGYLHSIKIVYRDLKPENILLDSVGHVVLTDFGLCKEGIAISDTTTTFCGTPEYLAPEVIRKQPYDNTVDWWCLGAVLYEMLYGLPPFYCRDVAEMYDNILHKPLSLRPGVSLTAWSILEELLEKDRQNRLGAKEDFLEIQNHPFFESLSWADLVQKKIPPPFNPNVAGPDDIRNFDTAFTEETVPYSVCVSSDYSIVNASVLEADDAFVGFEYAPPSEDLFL
In words: pull-down.

No constants are given. Whether binding was seen depends on the method and setting. Binding seen in cells or lysates may run through a third protein. Some results given as binding are weak or reduced against the parent protein; the word gives no strength. Sequences can lack the tags named with a protein.

B1: phosphoinositide-dependent kinase 1 (PDK1), endogenous (enzyme, UniProt O15530 1-556)
chain: MARTTSQLYDAVPIQSSVVLCSCPSPSMVRTQTESSTPPGIPGGSRQGPAMDGTAAEPRPGAGSLQHAQPPPQPRKKRPEDFKFGKILGEGSFSTVVLARELATSREYAIKILEKRHIIKENKVPYVTRERDVMSRLDHPFFVKLYFTFQDDEKLYFGLSYAKNGELLKYIRKIGSFDETCTRFYTAEIVSALEYLHGKGIIHRDLKPENILLNEDMHIQITDFGTAKVLSPESKQARANSFVGTAQYVSPELLTEKSACKSSDLWALGCIIYQLVAGLPPFRAGNEYLIFQKIIKLEYDFPEKFFPKARDLVEKLLVLDATKRLGCEEMEGYGPLKAHPFFESVTWENLHQQTPPKLTAYLPAMSEDDEDCYGNYDNLLSQFGCMQVSSSSSSHSLSASDTGLPQRSGSNIEQYIHDLDSNSFELDLQFSEDEKRLLLEKQAGGNPWHQFVENNLILKMGPVDKRKGLFARRRQLLLTEGPHLYYVDPVNKVLKGEIPWSQELRPEAKNFKTFFVHTPNRTYYLMDPSGNAHKWCRKIQEVWRQRYQSHPDAAVQ
On to B1, for which the binding result is “binds”.
